Source: PubChem BioAssay AID1671190 (National Center for Advancing Translational Sciences (NCATS), 2021)
In all, about 580,000 compounds went through this assay and about 6,100 (1.1%) were called active. Inconclusive means that the source gave no clear call. Such entries were picked first, then a sample of the others. Calls come from the whole dose curve; as a rule, active = well fitted inhibition curve with a large enough effect; inconclusive = small, poorly fitted or top-dose-only effect, or another doubt; inactive = no such curve, though single readings can be large or run the other way. Potencies beside an inconclusive call are fits to weak or partial responses and may not hold up.

Chains of the proteins cited; added tags and fusions are not shown.
UniProt P18054, whole entry, looked up: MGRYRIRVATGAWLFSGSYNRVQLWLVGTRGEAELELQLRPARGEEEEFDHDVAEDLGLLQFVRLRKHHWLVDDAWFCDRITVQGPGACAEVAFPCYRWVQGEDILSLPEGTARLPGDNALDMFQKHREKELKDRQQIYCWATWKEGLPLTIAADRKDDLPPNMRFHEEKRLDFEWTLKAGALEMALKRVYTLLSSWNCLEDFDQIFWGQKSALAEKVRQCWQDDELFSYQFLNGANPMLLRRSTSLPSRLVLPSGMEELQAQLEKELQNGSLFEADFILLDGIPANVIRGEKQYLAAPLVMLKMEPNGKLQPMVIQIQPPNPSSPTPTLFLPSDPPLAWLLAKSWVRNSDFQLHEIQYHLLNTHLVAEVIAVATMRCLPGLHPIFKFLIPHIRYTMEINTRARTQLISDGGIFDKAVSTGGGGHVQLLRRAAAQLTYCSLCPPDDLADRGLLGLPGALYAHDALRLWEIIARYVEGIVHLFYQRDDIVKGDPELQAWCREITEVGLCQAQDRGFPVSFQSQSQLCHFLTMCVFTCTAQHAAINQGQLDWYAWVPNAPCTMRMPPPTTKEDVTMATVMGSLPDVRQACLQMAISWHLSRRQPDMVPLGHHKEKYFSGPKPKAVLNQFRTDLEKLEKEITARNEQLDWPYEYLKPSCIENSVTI

The molecules below were run against Polyunsaturated fatty acid lipoxygenase ALOX12 (Homo sapiens) (UniProt P18054) (assay: Primary qHTS assay for inhibitors of human arachidonate 12S-lipoxygenase (ALOX12): Round 2). Settings: purified 12hLO, xylenol orange hydroperoxide absorbance; activity change, negative = inhibition: at 108 µM (top of the series) unless noted.
How it was run: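 Purified human 12hLO at 150 nM in 25 mM Hepes, 0.01% Triton X-100, pH 7.0, preincubated 15 min at room temperature with compound. Reaction started with 40 uM arachidonic acid, 30 min at room temperature. Hydroperoxide measured by Fe-xylenol orange, 573/405 nm absorbance ratio.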
% is set by controls: 0 for no effect and ±100 for the full control effect; potency is the fitted concentration of half-maximal effect.

Structure (SMILES)	Potency	activity change, negative = inhibition
C#CCOCCOCCOCCNc1nc(N2CCN(C(=O)Cn3cc(CC(C)O)nn3)CC2)nc(N2CCN(C(=O)[C@H]([C@@H](C)CC)n3cc(CCCN=C(N)N)nn3)CC2)n1 (some centres not stated)	inconclusive: 14.1 µM [inhibitor, full curve]	
CC1CCc2noc(NC(=O)c3ccc(Cl)cc3)c2C1 (configuration not stated)	inconclusive: 50.1 µM [inhibitor, partial curve, poor fit]	
COC(=O)[C@]1(Cc2ccccc2)N[C@H](c2ccc(-c3ccc(F)cc3)cc2)[C@@H]2C(=O)N(C)C(=O)[C@@H]21		inactive: -14.9%
C=CCNC(=S)NNc1nc2c(c(=O)[nH]1)C1(CCCC1)Cc1ccccc1-2	inconclusive: 44.7 µM [inhibitor, partial curve, poor fit]	
COc1ccc(C(=NNc2ccccc2C(=O)O)c2ccc(OC)cc2)cc1	inconclusive: 50.1 µM [inhibitor, single point]	
COC(=O)[C@H](Cc1ccccc1)N(Cc1ccccc1)S(=O)(=O)N(Cc1ccccc1)[C@@H](Cc1ccccc1)C(=O)OC		inactive: -4.74%
CCc1cccc(C)c1Nc1c(-c2cc(OC)c(O)c(OC)c2)nc2cnccn12	inconclusive: 100 µM [inhibitor, single point]	
Nc1nccnc1C(=O)NCC#Cc1ccccc1		inactive: 38.5%
O=C1NC[C@H](Cc2ccccc2)N(C[C@H]2CCCN2C[C@H](Cc2ccccc2)N2C[C@H](Cc3ccccc3)N(CC3CCCCC3)C(=O)C2=O)C1=O	inconclusive: 112 µM [inhibitor, single point]	
CC(C)N(c1ccccc1)c1ccc(NC(=O)[C@@H]2O[C@H](CO)[C@H](O)[C@H](O)[C@H]2O)cc1	inconclusive: 100 µM [inhibitor, partial curve, poor fit]	
CCCOc1ccc(Cc2nn3c(=O)/c(=C/c4ccco4)sc3nc2=O)cc1	inconclusive: 22.4 µM [inhibitor, partial curve, poor fit]	
CCCc1nc2ccc(Cl)cn2c1Cc1ccccc1	inconclusive: 44.7 µM [inhibitor, partial curve, poor fit]	
NC(=O)c1ccc(CN(CC2CCOC2)C2CC2)cc1 (configuration not stated)	inconclusive: 100 µM [inhibitor, single point]	
Cc1sc2c(c1C)c1nc(-c3ccco3)nn1c(=O)n2Cc1ccccc1	inconclusive: 22.4 µM [inhibitor, partial curve, poor fit]	
CC(=O)c1cccc(NC(=S)NC(=O)c2ccc(C)cc2)c1	inconclusive: 14.1 µM [inhibitor, full curve]	
Cc1ccc2c(COC(=O)CNC(=O)c3ccccc3)cc(=O)oc2c1	inconclusive: 35.5 µM [inhibitor, partial curve, poor fit]	
COCCNCCCCOc1c(Cl)cc(C)cc1Br	inconclusive: 1.41 µM [inhibitor, full curve, poor fit]	
CN(CC1CCOCC1)S(=O)(=O)c1ccc(F)c(Cl)c1		inactive: 34%
O=C(O)C1C2CCC(O2)C1C(=O)NCc1ccncc1 (configuration not stated)	inconclusive: 25.1 µM [inhibitor, partial curve, poor fit]	
NC(=O)c1noc(CN2CCOc3c(O)cc(-c4csc5ccccc45)cc3C2)n1	inconclusive: 44.7 µM [inhibitor, partial curve, poor fit]	
Cc1ccc(NC(=S)N(Cc2ccc(Br)cc2)Cc2ccc(C(=O)O)cc2)cc1C	active: 39.8 µM	
N=c1ccn2c(n1)OC1C(O)C(CO)OC12 (configuration not stated)		inactive: 0%
CCCCC(=O)NNC(=S)NC(=O)C(c1ccccc1)c1ccccc1	inconclusive: 50.1 µM [inhibitor, partial curve, poor fit]	

Looked up above:
Entry of `CCCCC(=O)NNC(=S)NC(=O)C(c1ccccc1)c1ccccc1` under Potency: inconclusive: 50.1 µM [inhibitor, partial curve, poor fit]
Entry of `CC(=O)c1cccc(NC(=S)NC(=O)c2ccc(C)cc2)c1` under Potency: inconclusive: 14.1 µM [inhibitor, full curve]
Entry of `CCc1cccc(C)c1Nc1c(-c2cc(OC)c(O)c(OC)c2)nc2cnccn12` under Potency: inconclusive: 100 µM [inhibitor, single point]

(cont.)

Structure (SMILES)	Potency	activity change, negative = inhibition
O=C(O)CCC(=O)c1c[nH]c2ccccc12	inconclusive: 141 µM [inhibitor, single point]	
N#Cc1sc2nc(-c3ccccc3)cc(C(F)(F)F)c2c1N		inactive: -11.5%
Cc1[nH]n2c(=O)cc(-c3ccc([N+](=O)[O-])cc3)nc2c1-c1ccccc1	inconclusive: 28.2 µM [inhibitor, partial curve, poor fit]	
Cc1nn(Cc2ccc(Cl)c(Cl)c2)c(C)c1NC(=O)c1cc(-c2ccco2)on1	inconclusive: 50.1 µM [inhibitor, partial curve, poor fit]	
O=C(CNC(=S)N(CCCN1CCOCC1)Cc1cccs1)NCCN1CCOCC1		inactive: -9.23%
CCOC(=O)c1c(NC(=O)C(=O)N/N=C/c2ccccc2O)sc2c1CCCCC2		inactive: -14.3%
O=C(COC(=O)c1c2c(nc3ccccc13)CCCC2)c1ccc(Oc2ccc(Cl)cc2[N+](=O)[O-])cc1		inactive: -37.6%
COCc1nc2ccccc2n1Cc1ccccc1		inactive: 0%
CN1CC(=O)N(C2CNC2)Cc2c(NC3CC3)ncnc21	inconclusive: 4.62 µM [inhibitor, single point]	
O=S(=O)(Cc1ccc(Cl)cc1)Cc1ccnc(Cl)c1	inconclusive: 70.8 µM [inhibitor, partial curve, poor fit]	
CC(C)C[C@H]1COc2cc(NCc3ccc(Cl)c(Cl)c3)ccc2S(=O)(=O)N1	inconclusive: 79.4 µM [inhibitor, single point]	
CCC(C(=O)Nc1c(C)cc(C)cc1C)N1CCCCCC1 (configuration not stated)	inconclusive: 70.8 µM [inhibitor, partial curve, poor fit]	
Cc1ccc2c(CN(C)CCOc3ccccc3)cc(=O)oc2c1	inconclusive: 0.794 µM [inhibitor, full curve, poor fit]	
COc1ccc(S(=O)(=O)NCCc2sc(-c3cccc(C)c3)nc2C)cc1	inconclusive: 56.2 µM [inhibitor, partial curve, poor fit]	
Cc1cc(C)c2c3c(sc2n1)C(c1cccc(F)c1)C(C#N)=C(N)O3 (configuration not stated)	inconclusive: 35.5 µM [inhibitor, single point]	
COc1c(F)ccc(C(=O)NC2CC(=O)N(CCc3ccc(F)cc3)C2)c1F (configuration not stated)	inconclusive: 100 µM [inhibitor, partial curve, poor fit]	
COc1cc(/C=C/c2nc(C#N)c(NCc3ccc(F)cc3)o2)cc(OC)c1OC		inactive: -9.45%
CCc1ccc(-n2nc(C)c3c(C(=O)N4CCN(c5cccc(Cl)c5)CC4)cc(C)nc32)cc1		inactive: -62%
N#C/C(=C\c1ccc(OCC(N)=O)cc1)c1ccccc1		inactive: 3.64%
CCN(c1ccccc1)S(=O)(=O)c1ccc(C(=O)N(CCCN(C)C)c2nc3c(C)cccc3s2)cc1	inconclusive: 39.8 µM [inhibitor, partial curve, poor fit]	
CCOC(=O)c1ccc(NC(=O)CCc2c(C)nc3c(c(C)nn3C(C)(C)C)c2C)cc1		inactive: -16.3%
CC(C)(C)CC(C)(C)NCC(O)COc1ccc2c(c1)CCC2 (configuration not stated)		inactive: -10.8%
Nc1nonc1-n1nnc(C(=O)N/N=C/c2cccc(Cl)c2)c1CN1CCCC1		inactive: 1.79%

Structure (SMILES)	Potency	activity change, negative = inhibition
CC(C)c1ccc(CN2C(=O)C(n3ccc4ccccc43)c3cc(Cl)ccc32)cc1 (configuration not stated)	active: 10 µM	
CCN(CC)Cc1c(O)ccc2c1O/C(=C\C=C\c1ccccc1)C2=O	inconclusive: 50.1 µM [inhibitor, partial curve, poor fit]	
COc1ccc(NC(=O)N2C[C@H]3[C@@H](c4ccccc42)[C@@H](CO)N3C(=O)C2CC2)cc1	inconclusive: 79.4 µM [inhibitor, single point]	
CCCc1ccc(C(=O)NC2CCSC2=O)cc1 (configuration not stated)		inactive: -33.2%
COc1cc(OC)c(NC(=O)NCc2cccn2Cc2ccccc2)cc1Cl		inactive: -12.5%
Cc1c(NC(=S)NC(=O)C(C)(C)C)cccc1[N+](=O)[O-]	inconclusive: 50.1 µM [inhibitor, partial curve, poor fit]	
COc1ccc(S(=O)(=O)N=N/C=C2\C=CC=CN2O)cc1OC	inconclusive: 2.24 µM [inhibitor, full curve, poor fit]	
O=C(N/N=C\c1ccccc1)c1sccc1-n1cccc1		inactive: 21.1%
Cc1ccc(C)c(NC(=O)c2csc3c2CCCC3)c1	inconclusive: 100 µM [inhibitor, partial curve, poor fit]	
COc1ccc(-c2cn3c(n2)sc2cc(C(=O)Nc4ccc(F)cc4Cl)ccc23)cc1		inactive: -1.8%
CCN(CC)c1nc2ccccc2nc1C(=O)Nc1cccc(C)c1C		inactive: 15.7%
COC(=O)c1cccc(NC(=S)NCc2ccc(Cl)cc2)c1	inconclusive: 44.7 µM [inhibitor, partial curve, poor fit]	
COC(=O)c1c(-c2cccs2)csc1NC(=O)c1cc(OC)c(OC)c(OC)c1	inconclusive: 50.1 µM [inhibitor, partial curve, poor fit]	
C/C(=N\Nc1ccc([N+](=O)[O-])cc1)c1ccc(O)cc1	inconclusive: 56.2 µM [inhibitor, partial curve, poor fit]	
O=C(NC(=S)Nc1c(F)cc(F)cc1Br)c1ccc2c(c1)OCCO2	inconclusive: 50.1 µM [inhibitor, partial curve, poor fit]	
COc1ccc(CNC(=O)Nc2ccccc2)cc1		inactive: 4.09%
Cc1ccc(NC(=O)c2cc(=O)c3ccc(C)cc3o2)c(C)c1		inactive: 3.09%
O=C(Cn1nc2n(c1=O)CCCCC2)NCCC1=CCCCC1		inactive: -2.4%
COc1ccccc1OCc1ccc(C(=O)Nc2cc(OC)c(OC)c(OC)c2)o1		inactive: -0.0108%
S=c1[nH]nc(-c2ccncc2)n1/N=C/C=C/c1ccco1	inconclusive: 44.7 µM [inhibitor, partial curve, poor fit]	
Cc1ccc(Cc2c(-c3ccc(Br)cc3)nc3cc(C)ccn23)cc1	inconclusive: 100 µM [inhibitor, partial curve, poor fit]	
